Measured values as given in the supplement of paper PMC8728848.
The list shows a part of the results.

What was measured:
Assay in all cases: glycan array binding signal (z-score within array); higher = stronger binding
Conditions in all cases: glycan notation: IUPAC condensed, linker removed
[1] = target: Neu5Ac(a2-3)Gal6S(b1-4)[Fuc(a1-3)]GlcNAc
How it was run: (§1)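 Arrays were curated from the Consortium for Functional Glycomics database, 3228 in total, and kept only where the protein sequence was available. Binding is expressed as a within-array Z-score. This score was averaged across arrays of the same protein sequence at different concentrations or buffers and across linkers, and negative values can be read as non-binding.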

Neu5Ac(a2-3)GalNAc = target: Neu5Ac(a2-3)GalNAc
How it was run: as §1

[2] = target: Neu5Ac(a2-3)GalNAc(b1-4)GlcNAc
How it was run: as §1

[3] = target: Neu5Ac(a2-3)[GalNAc(b1-4)]Gal(b1-4)Glc
How it was run: as §1

[4] = target: Neu5Ac(a2-3)[GalNAc(b1-4)]Gal(b1-4)GlcNAc
How it was run: as §1

[5] = target: Neu5Ac(a2-3)[GalNAc(b1-4)]Gal(b1-4)GlcNAc(b1-3)GalNAc
How it was run: as §1

[6] = target: Neu5Ac(a2-3)[Neu5Ac(a2-6)]GalNAc
How it was run: as §1

Neu5Ac(a2-6)Gal = target: Neu5Ac(a2-6)Gal
How it was run: as §1

[7] = target: Neu5Ac(a2-6)Gal(b1-3)GlcNAc(b1-3)[Gal(b1-4)GlcNAc(b1-6)]Gal(b1-4)Glc
How it was run: as §1

Neu5Ac(a2-6)Gal(b1-4)Glc = target: Neu5Ac(a2-6)Gal(b1-4)Glc
How it was run: as §1

[8] = target: Neu5Ac(a2-6)Gal(b1-4)GlcNAc
How it was run: as §1

[9] = target: Neu5Ac(a2-6)Gal(b1-4)GlcNAc(b1-2)Man
How it was run: as §1

[10] = target: Neu5Ac(a2-6)Gal(b1-4)GlcNAc(b1-2)Man(a1-3)Man(b1-4)GlcNAc(b1-4)GlcNAc
How it was run: as §1

[11] = target: Neu5Ac(a2-6)Gal(b1-4)GlcNAc(b1-2)Man(a1-3)[Gal(b1-4)GlcNAc(b1-2)Man(a1-6)]Man(b1-4)GlcNAc(b1-4)GlcNAc
How it was run: as §1

[12] = target: Neu5Ac(a2-6)Gal(b1-4)GlcNAc(b1-2)Man(a1-3)[GlcNAc(b1-2)Man(a1-6)]Man(b1-4)GlcNAc(b1-4)GlcNAc
How it was run: as §1

[13] = target: Neu5Ac(a2-6)Gal(b1-4)GlcNAc(b1-2)Man(a1-3)[GlcNAc(b1-4)][Neu5Ac(a2-6)Gal(b1-4)GlcNAc(b1-2)Man(a1-6)]Man(b1-4)GlcNAc(b1-4)GlcNAc
How it was run: as §1

[14] = target: Neu5Ac(a2-6)Gal(b1-4)GlcNAc(b1-2)Man(a1-3)[Man(a1-6)]Man(b1-4)GlcNAc(b1-4)GlcNAc
How it was run: as §1

[15] = target: Neu5Ac(a2-6)Gal(b1-4)GlcNAc(b1-2)Man(a1-3)[Neu5Ac(a2-3)Gal(b1-4)GlcNAc(b1-2)Man(a1-6)]Man(b1-4)GlcNAc(b1-4)GlcNAc
How it was run: as §1

[16] = target: Neu5Ac(a2-6)Gal(b1-4)GlcNAc(b1-2)Man(a1-3)[Neu5Ac(a2-6)Gal(b1-4)GlcNAc(b1-2)Man(a1-6)]Man(b1-4)GlcNAc(b1-4)GlcNAc
How it was run: as §1

[17] = target: Neu5Ac(a2-6)Gal(b1-4)GlcNAc(b1-2)Man(a1-3)[Neu5Ac(a2-6)Gal(b1-4)GlcNAc(b1-2)Man(a1-6)]Man(b1-4)GlcNAc(b1-4)[Fuc(a1-6)]GlcNAc
How it was run: as §1

[18] = target: Neu5Ac(a2-6)Gal(b1-4)GlcNAc(b1-2)Man(a1-6)Man(b1-4)GlcNAc(b1-4)GlcNAc
How it was run: as §1

[19] = target: Neu5Ac(a2-6)Gal(b1-4)GlcNAc(b1-2)Man(a1-6)[Gal(b1-4)GlcNAc(b1-2)Man(a1-3)]Man(b1-4)GlcNAc(b1-4)GlcNAc
How it was run: as §1

[20] = target: Neu5Ac(a2-6)Gal(b1-4)GlcNAc(b1-2)Man(a1-6)[GlcNAc(b1-2)Man(a1-3)]Man(b1-4)GlcNAc(b1-4)GlcNAc
How it was run: as §1

[21] = target: Neu5Ac(a2-6)Gal(b1-4)GlcNAc(b1-2)Man(a1-6)[Man(a1-3)]Man(b1-4)GlcNAc(b1-4)GlcNAc
How it was run: as §1

[22] = target: Neu5Ac(a2-6)Gal(b1-4)GlcNAc(b1-2)[Neu5Ac(a2-6)Gal(b1-4)GlcNAc(b1-4)]Man(a1-3)[GlcNAc(b1-4)][Neu5Ac(a2-6)Gal(b1-4)GlcNAc(b1-2)[Neu5Ac(a2-6)Gal(b1-4)GlcNAc(b1-6)]Man(a1-6)]Man(b1-4)GlcNAc(b1-4)GlcNAc
How it was run: as §1

[23] = target: Neu5Ac(a2-6)Gal(b1-4)GlcNAc(b1-2)[Neu5Ac(a2-6)Gal(b1-4)GlcNAc(b1-4)]Man(a1-3)[GlcNAc(b1-4)][Neu5Ac(a2-6)Gal(b1-4)GlcNAc(b1-4)Man(a1-6)]Man(b1-4)GlcNAc(b1-4)GlcNAc
How it was run: as §1

[24] = target: Neu5Ac(a2-6)Gal(b1-4)GlcNAc(b1-2)[Neu5Ac(a2-6)Gal(b1-4)GlcNAc(b1-6)]Man(a1-6)[Neu5Ac(a2-6)Gal(b1-4)GlcNAc(b1-2)Man(a1-3)][GlcNAc(b1-4)]Man(b1-4)GlcNAc(b1-4)GlcNAc
How it was run: as §1

[25] = target: Neu5Ac(a2-6)Gal(b1-4)GlcNAc(b1-3)Gal(b1-3)GlcNAc
How it was run: as §1

[26] = target: Neu5Ac(a2-6)Gal(b1-4)GlcNAc(b1-3)Gal(b1-4)GlcNAc
How it was run: as §1

[27] = target: Neu5Ac(a2-6)Gal(b1-4)GlcNAc(b1-3)Gal(b1-4)GlcNAc(b1-2)Man(a1-3)[Neu5Ac(a2-6)Gal(b1-4)GlcNAc(b1-3)Gal(b1-4)GlcNAc(b1-2)Man(a1-6)]GalNAc
How it was run: as §1

[28] = target: Neu5Ac(a2-6)Gal(b1-4)GlcNAc(b1-3)Gal(b1-4)GlcNAc(b1-3)Gal(b1-4)GlcNAc
How it was run: as §1

[29] = target: Neu5Ac(a2-6)Gal(b1-4)GlcNAc(b1-3)Gal(b1-4)GlcNAc(b1-3)Gal(b1-4)GlcNAc(b1-2)Man(a1-3)[Neu5Ac(a2-6)Gal(b1-4)GlcNAc(b1-3)Gal(b1-4)GlcNAc(b1-3)Gal(b1-4)GlcNAc(b1-2)Man(a1-6)]GalNAc
How it was run: as §1

[30] = target: Neu5Ac(a2-6)Gal(b1-4)GlcNAc(b1-3)Gal(b1-4)GlcNAc(b1-3)GalNAc
How it was run: as §1

[31] = target: Neu5Ac(a2-6)Gal(b1-4)GlcNAc(b1-3)Gal(b1-4)GlcNAc(b1-3)[Neu5Ac(a2-6)Gal(b1-4)GlcNAc(b1-3)Gal(b1-4)GlcNAc(b1-6)]GalNAc
How it was run: as §1

[32] = target: Neu5Ac(a2-6)Gal(b1-4)GlcNAc(b1-3)Gal(b1-4)GlcNAc(b1-6)[Gal(b1-3)]GalNAc
How it was run: as §1

[33] = target: Neu5Ac(a2-6)Gal(b1-4)GlcNAc(b1-3)Gal(b1-4)[Fuc(a1-3)]GlcNAc(b1-3)Gal(b1-4)[Fuc(a1-3)]GlcNAc
How it was run: as §1

[34] = target: Neu5Ac(a2-6)Gal(b1-4)GlcNAc(b1-3)GalNAc
How it was run: as §1

B1: AT5G24760(45) (Arabidopsis thaliana), Q8LEB2 (protein)
chain: MSASSSSFEQPQVITCNAAVAWRAGEPLVMEEVEVSPPQPLEIRIKVVCTSLCRSDLSAWESQSLLPRIFGHEAAGIVESIGEGVTEFEKGDHVLAVFTGECGSCRHCISGKSNMCQVLGMERKGLMHSDQKTRFSIKGKPVYHYCAVSSFSEYTVVHSGCAVKVDPLAPLHKICLLSCGVAAGLGAAWNVADVQKGSSVVIFGLGTVGLSVAQGAKLRGAAQILGVDINPAKAEQAKTFGVTDFINSNDLSEPIPQVIKRMTGGGADFSFECVGDTGIATTALQSCSDGWGMTVTLGVPKAKPEVSAHYGLFLSGKSLKGTLFGGWKPKSDLPSLIDKYMNKEIMIDEFITHNLSFDEINKAFVLMREGKCLRCVLHMPK
glycan array binding signal (z-score) [1]: -0.538 | glycan array binding signal (z-score) (Neu5Ac(a2-3)GalNAc): -0.101 | glycan array binding signal (z-score) [2]: 1.09 | glycan array binding signal (z-score) [3]: -0.661 | glycan array binding signal (z-score) [4]: -0.717 | glycan array binding signal (z-score) [5]: 0.231 | glycan array binding signal (z-score) [6]: -0.479 | glycan array binding signal (z-score) (Neu5Ac(a2-6)Gal): -0.781 | glycan array binding signal (z-score) [7]: -0.504 | glycan array binding signal (z-score) (Neu5Ac(a2-6)Gal(b1-4)Glc): -0.362 | glycan array binding signal (z-score) [8]: -0.075 | glycan array binding signal (z-score) [9]: -0.402 | glycan array binding signal (z-score) [10]: -0.824 | glycan array binding signal (z-score) [11]: -1.29 | glycan array binding signal (z-score) [12]: -1 | glycan array binding signal (z-score) [13]: -0.951 | glycan array binding signal (z-score) [14]: -0.703 | glycan array binding signal (z-score) [15]: -0.094 | glycan array binding signal (z-score) [16]: -0.223 | glycan array binding signal (z-score) [17]: -0.446 | glycan array binding signal (z-score) [18]: -0.961 | glycan array binding signal (z-score) [19]: -0.902 | glycan array binding signal (z-score) [20]: -0.952 | glycan array binding signal (z-score) [21]: -0.271 | glycan array binding signal (z-score) [22]: -0.308 | glycan array binding signal (z-score) [23]: -1.01 | glycan array binding signal (z-score) [24]: -0.502 | glycan array binding signal (z-score) [25]: 0.751 | glycan array binding signal (z-score) [26]: -0.877 | glycan array binding signal (z-score) [27]: 0.016 | glycan array binding signal (z-score) [28]: -1.08 | glycan array binding signal (z-score) [29]: -0.325 | glycan array binding signal (z-score) [30]: -1.39 | glycan array binding signal (z-score) [31]: -0.602 | glycan array binding signal (z-score) [32]: -0.499 | glycan array binding signal (z-score) [33]: -0.595 | glycan array binding signal (z-score) [34]: 1.66
